This is one part of the list.
Key:
Experiment in all cases: glycan array binding signal (z-score within array); higher = stronger binding
Details in all cases: glycan notation: IUPAC condensed, linker removed; mutation: R201A
[1] = target: Fuc(a1-2)Gal
Outline: (§1)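 Columns mapping to the same glycan were averaged after glycan names were converted to IUPAC-condensed notation. The data come from 3228 arrays in the Consortium for Functional Glycomics database, limited to those with an available protein sequence. Binding is reported as a within-array Z-score averaged across arrays of one protein sequence and across linkers.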

[2] = target: Fuc(a1-2)Gal(b1-3)GalNAc
Outline: as §1

[3] = target: Fuc(a1-2)Gal(b1-3)GalNAc(a1-3)[Fuc(a1-2)]Gal(b1-4)Glc
Outline: as §1

[4] = target: Fuc(a1-2)Gal(b1-3)GalNAc(a1-3)[Fuc(a1-2)]Gal(b1-4)GlcNAc
Outline: as §1

[5] = target: Fuc(a1-2)Gal(b1-3)GalNAc(b1-3)Gal
Outline: as §1

[6] = target: Fuc(a1-2)Gal(b1-3)GalNAc(b1-3)Gal(a1-4)Gal(b1-4)Glc
Outline: as §1

[7] = target: Fuc(a1-2)Gal(b1-3)GalNAc(b1-4)[Neu5Ac(a2-3)]Gal(b1-4)Glc
Outline: as §1

[8] = target: Fuc(a1-2)Gal(b1-3)GlcNAc
Outline: as §1

[9] = target: Fuc(a1-2)Gal(b1-3)GlcNAc(b1-2)Man(a1-3)[Fuc(a1-2)Gal(b1-3)GlcNAc(b1-2)Man(a1-6)]Man(b1-4)GlcNAc(b1-4)GlcNAc
Outline: as §1

[10] = target: Fuc(a1-2)Gal(b1-3)GlcNAc(b1-2)Man(a1-3)[Fuc(a1-2)Gal(b1-3)GlcNAc(b1-2)Man(a1-6)]Man(b1-4)GlcNAc(b1-4)[Fuc(a1-6)]GlcNAc
Outline: as §1

[11] = target: Fuc(a1-2)Gal(b1-3)GlcNAc(b1-3)Gal(b1-4)Glc
Outline: as §1

[12] = target: Fuc(a1-2)Gal(b1-3)GlcNAc(b1-3)GalNAc
Outline: as §1

[13] = target: Fuc(a1-2)Gal(b1-3)GlcNAc(b1-3)[Fuc(a1-2)Gal(b1-3)GlcNAc(b1-6)]GalNAc
Outline: as §1

[14] = target: Fuc(a1-2)Gal(b1-3)GlcNAc(b1-3)[Gal(b1-4)GlcNAc(b1-6)]Gal(b1-4)Glc
Outline: as §1

[15] = target: Fuc(a1-2)Gal(b1-3)GlcNAc(b1-3)[Neu5Ac(a2-6)Gal(b1-4)GlcNAc(b1-6)]Gal(b1-4)Glc
Outline: as §1

[16] = target: Fuc(a1-2)Gal(b1-3)GlcNAc6S
Outline: as §1

[17] = target: Fuc(a1-2)Gal(b1-3)[Fuc(a1-4)]GlcNAc
Outline: as §1

[18] = target: Fuc(a1-2)Gal(b1-3)[Fuc(a1-4)]GlcNAc(b1-2)Man(a1-3)[Fuc(a1-2)Gal(b1-3)[Fuc(a1-4)]GlcNAc(b1-2)Man(a1-3)]Man(b1-4)GlcNAc(b1-4)GlcNAc
Outline: as §1

[19] = target: Fuc(a1-2)Gal(b1-3)[Fuc(a1-4)]GlcNAc(b1-2)Man(a1-3)[Fuc(a1-2)Gal(b1-3)[Fuc(a1-4)]GlcNAc(b1-2)Man(a1-6)]Man(b1-4)GlcNAc(b1-4)[Fuc(a1-6)]GlcNAc(b1-4)[Fuc(a1-6)]GlcNAc
Outline: as §1

[20] = target: Fuc(a1-2)Gal(b1-3)[Fuc(a1-4)]GlcNAc(b1-3)[Fuc(a1-3)[Gal(b1-4)]GlcNAc(b1-6)]Gal(b1-4)Glc
Outline: as §1

[21] = target: Fuc(a1-2)Gal(b1-3)[Fuc(a1-4)]GlcNAc(b1-3)[Gal(b1-4)GlcNAc(b1-6)]Gal(b1-4)Glc
Outline: as §1

[22] = target: Fuc(a1-2)Gal(b1-4)Fuc(a1-3)]GlcNAc(b1-2)Man(a1-3)[Fuc(a1-2)Gal(b1-4)[Fuc(a1-3)]GlcNAc(b1-2)Man(a1-6)]Man(b1-4)GlcNAc(b1-4)GlcNAc
Outline: as §1

[23] = target: Fuc(a1-2)Gal(b1-4)Glc
Outline: as §1

[24] = target: Fuc(a1-2)Gal(b1-4)Glc6S
Outline: as §1

[25] = target: Fuc(a1-2)Gal(b1-4)GlcNAc
Outline: as §1

[26] = target: Fuc(a1-2)Gal(b1-4)GlcNAc(b1-2)Man
Outline: as §1

[27] = target: Fuc(a1-2)Gal(b1-4)GlcNAc(b1-2)Man(a1-3)[Fuc(a1-2)Gal(b1-4)GlcNAc(b1-2)Man(a1-6)]Man(b1-4)GlcNAc(b1-4)GlcNAc
Outline: as §1

[28] = target: Fuc(a1-2)Gal(b1-4)GlcNAc(b1-2)Man(a1-3)[Fuc(a1-2)Gal(b1-4)GlcNAc(b1-2)Man(a1-6)]Man(b1-4)GlcNAc(b1-4)[Fuc(a1-6)]GlcNAc
Outline: as §1

[29] = target: Fuc(a1-2)Gal(b1-4)GlcNAc(b1-2)[Fuc(a1-2)Gal(b1-4)GlcNAc(b1-4)]Man(a1-3)[Fuc(a1-2)Gal(b1-4)GlcNAc(b1-2)Man(a1-6)]Man(b1-4)GlcNAc(b1-4)GlcNAc
Outline: as §1

[30] = target: Fuc(a1-2)Gal(b1-4)GlcNAc(b1-3)Gal(b1-4)GlcNAc
Outline: as §1

[31] = target: Fuc(a1-2)Gal(b1-4)GlcNAc(b1-3)Gal(b1-4)GlcNAc(b1-2)Man(a1-3)[Fuc(a1-2)Gal(b1-4)GlcNAc(b1-3)Gal(b1-4)GlcNAc(b1-2)Man(a1-6)]Man(b1-4)GlcNAc(b1-4)GlcNAc
Outline: as §1

[32] = target: Fuc(a1-2)Gal(b1-4)GlcNAc(b1-3)Gal(b1-4)GlcNAc(b1-3)Gal(b1-4)GlcNAc
Outline: as §1

[33] = target: Fuc(a1-2)Gal(b1-4)GlcNAc(b1-3)GalNAc
Outline: as §1

[34] = target: Fuc(a1-2)Gal(b1-4)GlcNAc(b1-3)[Fuc(a1-2)Gal(b1-4)GlcNAc(b1-6)]GalNAc
Outline: as §1

[35] = target: Fuc(a1-2)Gal(b1-4)GlcNAc(b1-3)[Fuc(a1-3)[Gal(b1-4)]GlcNAc(b1-6)]Gal(b1-4)Glc
Outline: as §1

[36] = target: Fuc(a1-2)Gal(b1-4)GlcNAc(b1-6)GalNAc
Outline: as §1

[37] = target: Fuc(a1-2)Gal(b1-4)GlcNAc6S
Outline: as §1

B1: OS9 (Arabidopsis thaliana) (protein)
chain: MRGSHHHHHHGMASMTGGQQMGRDLYDDDDKSRLQIFPAHLVGTFSRNNREPKYKIEFLPEDSPFHPGDNLESMVMLDKHGNRFLCYLPKEEKATSGWTSSQQNISTVMMETQQLVKLKTPDELLQPLSEKCLFRQEGWWSYEFCHQKYVRQLHVEDENKIVQEFFLGTFDPEATAAFNQTVSDASTDASQRYHSHVYTNGTTCDLTGSPAEVEVRFVCAETRAMVTSITELSTCKYALTVQCPTLCKHPLFQLEKPVSHTIHCNAIPVEEDATRNKEEQAVDESPKMIADS
[1]
  glycan array binding signal (z-score): 0.581
[2]
  glycan array binding signal (z-score): -0.494
[3]
  glycan array binding signal (z-score): 0.944
[4]
  glycan array binding signal (z-score): 0.159
[5]
  glycan array binding signal (z-score): -0.378
[6]
  glycan array binding signal (z-score): -0.131
[7]
  glycan array binding signal (z-score): -0.246
[8]
  glycan array binding signal (z-score): 0.928
[9]
  glycan array binding signal (z-score): 1.41
[10]
  glycan array binding signal (z-score): 0.177
[11]
  glycan array binding signal (z-score): -0.271
[12]
  glycan array binding signal (z-score): -0.284
[13]
  glycan array binding signal (z-score): 1.54
[14]
  glycan array binding signal (z-score): 0.623
[15]
  glycan array binding signal (z-score): 0.511
[16]
  glycan array binding signal (z-score): -0.714
[17]
  glycan array binding signal (z-score): 0.017
[18]
  glycan array binding signal (z-score): -0.271
[19]
  glycan array binding signal (z-score): -0.6
[20]
  glycan array binding signal (z-score): 0.289
[21]
  glycan array binding signal (z-score): -0.471
[22]
  glycan array binding signal (z-score): 1.01
[23]
  glycan array binding signal (z-score): -0.732
[24]
  glycan array binding signal (z-score): 0.04
[25]
  glycan array binding signal (z-score): -0.385
[26]
  glycan array binding signal (z-score): -0.418
[27]
  glycan array binding signal (z-score): -0.091
[28]
  glycan array binding signal (z-score): 1.92
[29]
  glycan array binding signal (z-score): -0.17
[30]
  glycan array binding signal (z-score): -0.589
[31]
  glycan array binding signal (z-score): -0.059
[32]
  glycan array binding signal (z-score): -0.84
[33]
  glycan array binding signal (z-score): -0.821
[34]
  glycan array binding signal (z-score): -0.834
[35]
  glycan array binding signal (z-score): -0.817
[36]
  glycan array binding signal (z-score): -1.24
[37]
  glycan array binding signal (z-score): -0.26

Source: the supplement of paper PMC8728848
